We go through four substances from paper PMC10407933 (The Journal of Organic Chemistry, 2023).

HELM strings list residues between dots; [ac] is acetyl, [am] amide, other brackets name non-standard units.

A short description of this data set: general procedure: Fmoc solid-phase peptide synthesis; Tentagel resin. As to conditions: whole synthesis.

Substance “PEPTIDE1{T.F.[beta-N(pi)-ADPr-His*].G.A.G.L.V.V.P.V.D.K}$$$$V2.0” came in with an isolated yield of 25%. Also, the isolated yield (over 9 steps) amounted to 9%. Further, the isolated mass (scale 50 µmol) is 8.0 mg.

The substance “PEPTIDE1{T.F.[alpha-N(pi)-ADPr-His*].G.A.G.L.V.V.P.V.D.K}$$$$V2.0” yielded an isolated yield (over 8 steps) of 25%. Under “scale 50 µmol”, this substance registered an isolated mass of 11.9 mg.

Take “PEPTIDE1{T.F.[alpha-N(tau)-ADPr-His*].G.A.G.L.V.V.P.V.D.K}$$$$V2.0”: the isolated yield (over 8 steps) came out at 36%. Also, for the setting “scale 50 µmol”, the isolated mass is recorded as 33.2 mg and the isolated yield was 35%.

Substance “PEPTIDE1{T.F.[beta-N(tau)-ADPr-His*].G.A.G.L.V.V.P.V.D.K}$$$$V2.0” came in with an isolated yield of 36%. Under “over 9 steps”, the isolated yield came out at 26%. Further, under “scale 50 µmol”, the isolated mass amounted to 24.7 mg.
